{
  "source": "PubChem BioAssay AID540276",
  "about": "(National Center for Advancing Translational Sciences (NCATS), 2011)",
  "note": "Where “and” joins values, the source holds several entries; their conditions need not be identical. Identical values can stand only once. Among all 300,000 compounds or so, about 5,400 (1.8%) were called active. Inconclusive means that the source gave no clear call. Such entries were picked first, then a sample of the others. Calls follow the shape of the full dose curve; tested in HEK293 cells. Where the call is inconclusive, the potency comes from a doubtful curve fit.",
  "data": [
    {"assay": "qHTS for inhibitors of binding or entry into cells for Marburg Virus; also: potency is read from the fitted curve at half-maximal effect", "settings": "Marburg virus pseudotyped entry inhibition, cell reporter; series mostly up to 37.8 µM", "values": [
      {"compound": "O=C(NCc1ccccc1Cl)C1CCC(=O)N(C2CC2)C1", "note": "(configuration not stated)", "Potency": "inconclusive: 35.5 µM [inhibitor, partial curve, poor fit]"},
      {"compound": "COc1ccc(NC(=O)c2c(C)oc3ccc(O)c(CN4CCCC(C)C4)c23)cc1", "note": "(configuration not stated)", "Potency": "inconclusive: 35.5 µM [inhibitor, single point]"},
      {"compound": "COc1ccc(NC(=O)c2oc3ccccc3c2NC(=O)c2cc(OC)c(OC)c(OC)c2)cc1", "Potency": "inconclusive: 3.16 µM [inhibitor, full curve, poor fit]"},
      {"compound": "O=C(Nc1ccnn1C1CCN(C2CCC2)CC1)c1ccccc1", "Potency": "inactive"},
      {"compound": "Cc1cc(S(=O)(=O)NCc2ccccc2)ccc1OCC(=O)Nc1cccc([N+](=O)[O-])c1", "Potency": "active: 11.6 µM"},
      {"compound": "COc1ccc(Nc2ncnc3ccc([N+](=O)[O-])cc23)c(OC)c1", "Potency": "inconclusive: 0.631 µM [inhibitor, full curve]"},
      {"compound": "CCN1CCN(CCCNC(=O)Cn2nc(C)n3nc(-c4ccccc4)cc3c2=O)CC1", "Potency": "inconclusive: 25.1 µM [inhibitor, single point]"},
      {"compound": "O=C(/C=C/c1ccccc1)NC(=S)Nc1cccnc1", "Potency": "active: 11.6 µM"},
      {"compound": "CCN(CC)C(=O)CN1CCN(Cc2ccc3c(c2)OCO3)CC1", "Potency": "inactive"},
      {"compound": "Cc1cc(N2CCN(c3ccccc3)CC2)nc(-c2ccccc2)n1", "Potency": "inactive"},
      {"compound": "CCC(C)NC(=S)N(CCc1ccccc1)Cc1cc2cc(OC)c(OC)cc2[nH]c1=O", "note": "(configuration not stated)", "Potency": "inconclusive: 35.5 µM [inhibitor, single point]"},
      {"compound": "CCn1cc(C(=O)O)c(=O)c2cc(F)c(N3CCN(S(=O)(=O)c4ccc(NC(=O)OC)cc4)CC3)cc21", "Potency": "inconclusive: 1.58 µM [activator, partial curve, poor fit]"},
      {"compound": "Cc1nnc(SCC(=O)Nc2sccc2C#N)n1Cc1ccccc1", "Potency": "inconclusive: 5.62 µM [inhibitor, partial curve, poor fit]"},
      {"compound": "COc1ccccc1-c1c(NC(=O)c2ccco2)n(C)c2ccccc2c1=O", "Potency": "inconclusive: 31.6 µM [activator, single point]"},
      {"compound": "CCOC(=O)C1=C(COC(=O)c2ccccc2OC(F)F)NC(=O)NC1C", "note": "(configuration not stated)", "Potency": "inconclusive: 1.26 µM [inhibitor, single point]"},
      {"compound": "CCc1ccc(OCCCN=C(C)c2c(O)n(C)c(=O)n(C)c2=O)cc1", "Potency": "inconclusive: 22.4 µM [inhibitor, partial curve, poor fit]"},
      {"compound": "CN(C)c1ccc(C=C(c2nnnn2-c2ccccc2)c2nnnn2-c2ccccc2)cc1", "Potency": "inconclusive: 35.5 µM [inhibitor, single point]"},
      {"compound": "C1=CCC(CN2CCN(C3CCCCCC3)CC2)CC1", "note": "(configuration not stated)", "Potency": "inconclusive: 5.62 µM [inhibitor, single point]"},
      {"compound": "CN(C)CCNC=C(C(=O)Nc1ccc(Cl)cc1Cl)C(=O)Nc1ccc(Cl)cc1Cl", "Potency": "inconclusive: 3.98 µM [inhibitor, full curve]"},
      {"compound": "CC(/C=N/NC(=O)C(O)c1ccccc1)=C\\c1ccccc1", "note": "(configuration not stated)", "Potency": "inactive"},
      {"compound": "C=CCn1c(SCC(=O)NCC)nc2sc3c(c2c1=O)CCC3", "Potency": "inactive"},
      {"compound": "Cn1c(=O)n(C)c2cc([N+](=O)[O-])c(N3CCN(C(=O)c4ccc(F)cc4)CC3)cc21", "Potency": "inconclusive: 13 µM [inhibitor, partial curve, poor fit]"},
      {"compound": "Cc1ccc(-n2nnnc2Sc2nc([N+](=O)[O-])nn2C)c(C)c1", "Potency": "inconclusive: 14.1 µM [inhibitor, single point]"},
      {"compound": "CC(=O)c1cnc2nc(SCc3ccc(C)cc3)nn2c1C", "Potency": "inconclusive: 1.26 µM [inhibitor, single point]"},
      {"compound": "COc1ccc(C(=O)COc2ccc(C)cc2NC(C)=O)cc1", "Potency": "inconclusive: 2 µM [activator, partial curve, poor fit]"},
      {"compound": "CSc1ccccc1NC(=O)CSc1cccc[n+]1[O-]", "Potency": "inactive"},
      {"compound": "CN1CCN(CCCc2c3c(cc4c2CCC4)CCC3)CC1", "Potency": "inconclusive: 29.1 µM [inhibitor, single point]"},
      {"compound": "Cc1ccc(C)c(NC(=O)Cn2c(=O)n(Cc3ccco3)c(=O)c3ccc(C(=O)NC4CCCC4)cc32)c1", "Potency": "inactive"},
      {"compound": "CCC(=O)O/N=C(\\N)c1ccc(Oc2cc(C)c(Cl)c(C)c2)c([N+](=O)[O-])c1", "Potency": "inconclusive: 0.112 µM [inhibitor, full curve, poor fit]"},
      {"compound": "CCCOc1cccc(-c2nnc(N)s2)c1", "Potency": "inconclusive: 1.26 µM [activator, single point]"},
      {"compound": "COc1ccc(C(=O)Nc2c(N)nc[nH]c2=O)cc1", "Potency": "inconclusive: 0.562 µM [inhibitor, full curve, poor fit]"},
      {"compound": "Cc1cn([C@H]2C[C@H](N=[N+]=[N-])[C@@H](CO)O2)c(=O)[nH]c1=O", "Potency": "inconclusive: 32.6 µM [inhibitor, single point]"},
      {"compound": "COc1ccccc1OCC(=O)N1CCCC(Nc2ccc(C)c(C)c2)C1", "note": "(configuration not stated)", "Potency": "inactive"},
      {"compound": "COc1ccc(-n2c(=S)[nH]c3cc(C(=O)NCc4ccccc4OC)ccc3c2=O)c(OC)c1", "Potency": "inconclusive: 7.08 µM [inhibitor, full curve, poor fit]"},
      {"compound": "Cc1ccc(NC(=O)CSCC(=O)Nc2ccc(N3CCOCC3)cc2N2CCOCC2)cc1", "Potency": "inconclusive: 35.5 µM [inhibitor, partial curve, poor fit]"},
      {"compound": "OC(COc1ccc(Cl)cc1)CN1CCN(c2ccccn2)CC1", "note": "(configuration not stated)", "Potency": "inconclusive: 35.5 µM [activator, partial curve, poor fit]"},
      {"compound": "COc1ccc(/C(N)=N/OC(=O)CC2CCCCC2)cc1", "Potency": "inactive"},
      {"compound": "N#Cc1c(N)nc(SCC(=O)NC2CCCCC2)c(C#N)c1-c1ccc(Cl)cc1", "Potency": "inconclusive: 16.4 µM [inhibitor, single point]"},
      {"compound": "COc1ccc(OCc2cc(C(=O)N3CCCCCCC3)no2)c(Cl)c1", "Potency": "inactive"},
      {"compound": "Cc1ccc(S(=O)(=O)N2CCN(C(=O)COC(=O)c3ccc(O)cc3)CC2)c(C)c1", "Potency": "inconclusive: 12.6 µM [activator, partial curve]"},
      {"compound": "CC1CC(C)CN(CCOc2ccc(Cl)cc2Cl)C1", "note": "(configuration not stated)", "Potency": "inconclusive: 8.2 µM [inhibitor, partial curve, poor fit]"},
      {"compound": "CN(C)S(=O)(=O)c1cccc(NC(=O)CCCSc2ccccc2)c1", "Potency": "inconclusive: 35.5 µM [inhibitor, single point]"},
      {"compound": "O=C1CCCCCCC1Sc1ccccc1[N+](=O)[O-]", "note": "(configuration not stated)", "Potency": "inconclusive: 12.6 µM [inhibitor, single point]"},
      {"compound": "O=C(O)c1ccc(-n2[nH]c3c(c2=O)CCCC3)cc1", "Potency": "inactive"},
      {"compound": "O=C(Cn1c(SCCOc2ccccc2Cl)nc2ccccc21)N1CCCCC1", "Potency": "inconclusive: 1.41 µM [inhibitor, partial curve, poor fit]"},
      {"compound": "CC1=NCCN1S(=O)(=O)c1ccc(Br)c(C)c1", "Potency": "inconclusive: 1.03 µM [inhibitor, partial curve, poor fit]"},
      {"compound": "COc1ccc(C2C(C(=O)N3CCCCC3)c3ccccc3C(=O)N2C)cc1", "note": "(configuration not stated)", "Potency": "inconclusive: 0.517 µM [inhibitor, full curve, poor fit]"},
      {"compound": "COc1cccc(-c2nnc3n2N=C(c2cc(OC)ccc2OC)CS3)c1", "Potency": "inconclusive: 5.8 µM [inhibitor, partial curve]"},
      {"compound": "CSc1ccccc1NC(=O)C1CC(c2ccccc2Cl)=NO1", "note": "(configuration not stated)", "Potency": "inconclusive: 35.5 µM [inhibitor, single point]"},
      {"compound": "N#Cc1c(-c2ccc(Cl)cc2)ccn2nc(C3CCCCC3)nc12", "Potency": "inactive"},
      {"compound": "COc1cc(/C=C(\\C#N)c2nc3ccccc3[nH]2)c([N+](=O)[O-])cc1OCc1ccccc1", "Potency": "inconclusive: 8.91 µM [inhibitor, partial curve, poor fit]"},
      {"compound": "CCOC(=O)c1ccc2nc3c(cc2c1)CCS3", "Potency": "inconclusive: 29.1 µM [activator, partial curve, poor fit]"},
      {"compound": "COc1ccc([C@@H]2Sc3ccccc3N(CCN(C)C)C(=O)[C@@H]2OC(C)=O)cc1", "Potency": "inconclusive: 16.4 µM [inhibitor, single point] and inconclusive: 1.41 µM [inhibitor, partial curve]"},
      {"compound": "Cc1cc(C)cc(OCC(=O)NCC2(N3CCOCC3)CCCCC2)c1", "Potency": "inactive"},
      {"compound": "COc1cc(OC)cc(C(=O)Nc2nnc(SCC(=O)NCC3CCCO3)s2)c1", "note": "(configuration not stated)", "Potency": "inactive"},
      {"compound": "CCn1c(SCC(=O)O)nnc1-c1ccccc1", "Potency": "inactive"},
      {"compound": "Cc1sc2nc(CSCC(=O)Nc3c(Cl)cccc3Cl)[nH]c(=O)c2c1C", "Potency": "inconclusive: 12.6 µM [inhibitor, single point]"},
      {"compound": "O=C(NC(=S)NC1CCSC1=O)c1cccs1", "note": "(configuration not stated)", "Potency": "inconclusive: 28.2 µM [activator, single point]"},
      {"compound": "Cc1ccn2cc(CCNC(=O)C3CC=CCC3C(=O)O)nc2c1", "note": "(configuration not stated)", "Potency": "inactive"},
      {"compound": "O=C(CSc1ncnc2sccc12)Nc1ccccc1", "Potency": "inactive"},
      {"compound": "CCCCOc1cccc(-c2nnc(N)s2)c1", "Potency": "inactive"},
      {"compound": "O=C(CCn1c(=O)[nH]c2ccsc2c1=O)N1CCN(Cc2ccc3c(c2)OCO3)CC1", "Potency": "inconclusive: 12.6 µM [inhibitor, partial curve, poor fit]"},
      {"compound": "O=C(NNC(=O)c1cc(-c2ccc(Cl)cc2)nc2ccccc12)c1csc(N2CCOCC2)n1", "Potency": "inconclusive: 22.4 µM [inhibitor, single point]"},
      {"compound": "CN(CC(=O)Nc1ccc(SC(F)F)cc1)C1CCCCC1", "Potency": "inactive"},
      {"compound": "CCC(C)COC(c1ccccc1)(c1ccccc1)C(Oc1nc(C)cc(C)n1)C(=O)O", "note": "(configuration not stated)", "Potency": "inconclusive: 35.5 µM [inhibitor, partial curve, poor fit]"},
      {"compound": "CC(=O)c1cccc(NC(=O)c2ccc(-c3ccccc3[N+](=O)[O-])o2)c1", "Potency": "active: 4.61 µM"},
      {"compound": "CC(=O)NC1(C(F)(F)F)NC(=O)N(c2ccc(F)cc2)C1=O", "note": "(configuration not stated)", "Potency": "inconclusive: 14.1 µM [activator, partial curve, poor fit]"}
    ]}
  ]
}
